Results on one molecule are retold here after paper PMC9104323.

Protein sequences, listed by entry. Tags and fused reporters are not part of them.
UniProt P04150: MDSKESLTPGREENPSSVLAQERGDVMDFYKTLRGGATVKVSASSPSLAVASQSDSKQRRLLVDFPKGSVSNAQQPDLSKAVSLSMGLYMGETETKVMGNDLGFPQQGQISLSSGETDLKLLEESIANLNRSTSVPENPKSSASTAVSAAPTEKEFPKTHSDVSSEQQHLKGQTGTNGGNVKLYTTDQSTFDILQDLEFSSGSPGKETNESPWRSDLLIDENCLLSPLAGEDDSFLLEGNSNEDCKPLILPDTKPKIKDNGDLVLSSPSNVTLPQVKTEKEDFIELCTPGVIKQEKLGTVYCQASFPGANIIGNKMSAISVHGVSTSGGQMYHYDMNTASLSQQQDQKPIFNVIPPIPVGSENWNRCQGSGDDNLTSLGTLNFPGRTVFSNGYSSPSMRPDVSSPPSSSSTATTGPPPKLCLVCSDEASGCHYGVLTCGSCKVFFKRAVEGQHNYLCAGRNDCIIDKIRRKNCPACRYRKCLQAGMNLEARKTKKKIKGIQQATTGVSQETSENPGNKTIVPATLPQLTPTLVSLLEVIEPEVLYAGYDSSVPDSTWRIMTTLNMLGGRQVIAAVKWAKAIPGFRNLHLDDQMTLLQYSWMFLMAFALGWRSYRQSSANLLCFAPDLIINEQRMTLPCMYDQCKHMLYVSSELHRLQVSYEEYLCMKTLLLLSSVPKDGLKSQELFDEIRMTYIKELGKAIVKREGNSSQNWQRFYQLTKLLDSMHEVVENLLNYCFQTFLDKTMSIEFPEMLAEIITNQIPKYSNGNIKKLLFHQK

For the experiment, the target named is glucocorticoid receptor (human (endogenous in HEK293)) (UniProt P04150). Kind of experiment: affinity purification with mass spectrometry; IP of endogenous GR from HEK293 whole cell lysates with the anti-GR (G-5) antibody, overnight at 4 °C, protein A/G PLUS agarose, isotype control in parallel; LC-MS/MS, label-free quantification.

No constants are given. Whether binding was seen depends on the method and setting. Binding seen in cells or lysates may run through a third protein. Here binding means that the protein was enriched with, or labelled near, the bait; the list need not be complete. A no says only that the protein was not detected with the bait.

B1: AMP deaminase 2 (protein, UniProt Q01433 1-825)
chain: MASYPSGSGKPKAKYPFKKRASLQASTAAPEARGGLGAPPLQSARSLPGPAPCLKHFPLDLRTSMDGKCKEIAEELFTRSLAESELRSAPYEFPEESPIEQLEERRQRLERQISQDVKLEPDILLRAKQDFLKTDSDSDLQLYKEQGEGQGDRSLRERDVLEREFQRVTISGEEKCGVPFTDLLDAAKSVVRALFIREKYMALSLQSFCPTTRRYLQQLAEKPLETRTYEQGPDTPVSADAPVHPPALEQHPYEHCEPSTMPGDLGLGLRMVRGVVHVYTRREPDEHCSEVELPYPDLQEFVADVNVLMALIINGPIKSFCYRRLQYLSSKFQMHVLLNEMKELAAQKKVPHRDFYNIRKVDTHIHASSCMNQKHLLRFIKRAMKRHLEEIVHVEQGREQTLREVFESMNLTAYDLSVDTLDVHADRNTFHRFDKFNAKYNPIGESVLREIFIKTDNRVSGKYFAHIIKEVMSDLEESKYQNAELRLSIYGRSRDEWDKLARWAVMHRVHSPNVRWLVQVPRLFDVYRTKGQLANFQEMLENIFLPLFEATVHPASHPELHLFLEHVDGFDSVDDESKPENHVFNLESPLPEAWVEEDNPPYAYYLYYTFANMAMLNHLRRQRGFHTFVLRPHCGEAGPIHHLVSAFMLAENISHGLLLRKAPVLQYLYYLAQIGIAMSPLSNNSLFLSYHRNPLPEYLSRGLMVSLSTDDPLQFHFTKEPLMEEYSIATQVWKLSSCDMCELARNSVLMSGFSHKVKSHWLGPNYTKEGPEGNDIRRTNVPDIRVGYRYETLCQELALITQAVQSEMLETIPEEAGITMSPGPQ
Turning to B1, the binding result is on record as “no binding”.
